These are yes or no findings as the source states them, for the method shown. Some results given as binding are weak or reduced against the parent protein; the word gives no strength. For part of these data: Where a sequence is shown, tags or fusion partners need not be part of it.
Assays:
Assay in all cases: two-hybrid; Bacterial adenylate cyclase (T25/T18) complementation in E. coli cya BTH101; blue colonies on LB-agar with X-gal and IPTG; more stringent: growth and blue colour on M63B1-agar with 0.4% maltose
[1] = biological target: T1, BcsF (two-hybrid fusion) (E. coli 1094) (UniProt P0ADJ5)
T1 sequence: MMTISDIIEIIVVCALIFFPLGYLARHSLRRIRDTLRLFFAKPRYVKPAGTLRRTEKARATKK

By UniProt entry, the sequences of proteins in these tests, tags left out.
UniProt P37657: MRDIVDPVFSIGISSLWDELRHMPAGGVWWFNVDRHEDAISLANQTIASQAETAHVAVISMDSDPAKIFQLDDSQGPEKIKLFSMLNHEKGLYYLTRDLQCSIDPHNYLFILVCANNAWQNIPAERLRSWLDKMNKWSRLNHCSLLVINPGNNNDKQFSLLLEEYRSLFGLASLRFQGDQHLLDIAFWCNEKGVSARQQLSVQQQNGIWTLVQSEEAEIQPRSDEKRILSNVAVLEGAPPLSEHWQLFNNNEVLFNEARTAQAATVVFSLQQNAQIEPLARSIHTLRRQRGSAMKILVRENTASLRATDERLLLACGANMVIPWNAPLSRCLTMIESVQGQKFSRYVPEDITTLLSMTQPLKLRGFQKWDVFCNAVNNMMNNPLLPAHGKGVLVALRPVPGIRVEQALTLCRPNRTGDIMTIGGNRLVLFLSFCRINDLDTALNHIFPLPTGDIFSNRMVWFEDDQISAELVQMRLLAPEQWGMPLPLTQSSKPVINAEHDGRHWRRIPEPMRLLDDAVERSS

[2] = biological target: BcsE (two-hybrid fusion) (E. coli 1094) (UniProt P37657)
[3] = biological target: T2, BcsA^PilZ (two-hybrid fusion) (E. coli 1094) (UniProt P37653)
T2 sequence: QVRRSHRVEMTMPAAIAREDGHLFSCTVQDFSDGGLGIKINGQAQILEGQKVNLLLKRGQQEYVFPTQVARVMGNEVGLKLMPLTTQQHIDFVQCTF

Measured: binding

BcsE (two-hybrid fusion) (from UniProt P37657 1-523)
binds: all assays above

— paper PMC5727187
